{"source": "patent US20210145000A1", "about": "“WEED CONTROL FROM APPLICATIONS OF PYRIDINE CARBOXYLIC ACID HERBICIDES AND ACETYL CoA CARBOXYLASE (ACCase) INHIBITORS” (Dow AgroSciences LLC, priority 2018, published 2021)", "test_in_all_cases": "Postemergence herbicidal activity, greenhouse, visual injury", "format_in_all_cases": "in vivo", "details_in_all_cases": "Compound 1 5 g ai/ha", "key": {"[1]": {"system": "winter rape (Brassica napus, BRSNW)", "description": "(§1) Seeds of the desired test plant species were planted in Sun Gro MetroMix® 306 planting mixture, which typically has a pH of 6.0 to 6.8 and an organic matter content of about 30 percent, in plastic pots with a surface area of 103.2 square centimeters (cm^2). When required to ensure good germination and healthy plants, a fungicide treatment and/or other chemical or physical treatment was applied. The plants were grown for 7-36 days (d) in a greenhouse with an approximate 14-hour (h) photoperiod which was maintained at about 23° C. during the day and 22° C. during the night. Nutrients and water were added on a regular basis and supplemental lighting was provided with overhead metal halide 1000-Watt lamps as necessary. […]\n(§2) The treated plants and control plants were placed in a greenhouse as described above and watered by sub-irrigation to prevent wash-off of the test compounds. After 20-22 d, the condition of the test plants as compared with that of the control plants was determined visually and scored on a scale of 0 to 100 percent where 0 corresponds to no injury and 100 corresponds to complete kill. The condition of the test plants was compared with that of the control plants as determined visually and scored on a scale of 0 to 100 percent, where 0 corresponds to no injury and 100 corresponds to complete kill. […]"}, "[2]": {"system": "chickweed (Stellaria media, STEME)", "description": "as §1, §2"}, "[3]": {"system": "pigweed (Amaranthus retroflexus, AMARE)", "description": "(§3) The plants were grown for 7-36 days (d) in a greenhouse with an approximate 14-hour (h) photoperiod which was maintained at about 23° C. during the day and 22° C. during the night. Nutrients and water were added on a regular basis and supplemental lighting was provided with overhead metal halide 1000-Watt lamps as necessary. The plants were employed for testing when they reached the second or third true leaf stage.\n(§4) Spray solutions of the experimental compound mixtures were prepared by adding the stock solutions to the appropriate amount of dilution solution to form a 12 mL spray solution in two-way combinations. […] Control plants were sprayed in the same manner with the solvent blank. Application rates for component (a) are in g ae/ha, and application rates for component (b) are in g ai/ha.\n(§5) The treated plants and control plants were placed in a greenhouse as described above and watered by sub-irrigation to prevent wash-off of the test compounds. After 20-22 d, the condition of the test plants as compared with that of the control plants was determined visually and scored on a scale of 0 to 100 percent where 0 corresponds to no injury and 100 corresponds to complete kill. The Colby method was used to determine the herbicidal effects expected from the mixtures."}, "[4]": {"system": "common lambsquarters (Chenopodium album L., CHEAL)", "description": "as §3, §4, §5"}, "[5]": {"system": "soybean (Glycine max, GLXMA)", "description": "as §3, §4, §5"}, "[6]": {"system": "wild buckwheat (Polygonum convolvulus, POLCO)", "description": "as §3, §4, §5"}, "[7]": {"system": "sunflower (Helianthus annuus, HELAN)", "description": "as §3, §4, §5"}}, "note": "“And” between values parts separate entries of the source, which are not always exact repeats. Equal values may be shown once. The name of at least one read-out is uncertain."}
{"compound": "Nc1c(F)c(-c2ccc3cc[nH]c3c2F)nc(C(=O)O)c1Cl", "note": "[Compound 1]", "values": [{"measurement": "Effect (% visual injury) Obs", "setting": "[1]", "value": 40, "unit": "%"}, {"measurement": "Effect (% visual injury) Obs", "setting": "[2]", "value": "100% and 70%"}, {"measurement": "Effect (% visual injury) Obs", "setting": "[3]", "value": "100% and 75%"}, {"measurement": "Effect (% visual injury) Obs", "setting": "[4]", "value": 90, "unit": "%"}, {"measurement": "Effect (% visual injury) Obs", "setting": "[5]", "value": 95, "unit": "%"}, {"measurement": "Effect (% visual injury) Obs", "setting": "[6]", "value": "95% and 65%"}, {"measurement": "Effect (% visual injury) Obs", "setting": "[7]", "value": 90, "unit": "%"}]}
